Data source: PubChem BioAssay AID1259331 (Drosophila RNAi Screening Center, 2017)
Test: 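Fly transmembrane-protein genes that affect zinc toxicity in cultured cells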 (primary screen). Cell system: Drosophila S2R+ cells. Reagents: long dsRNA against Drosophila genes. Timing: 5 days (4 days knock-down, then 1 day zinc). Challenge: zinc chloride at 15 mM final level for 1 day. Measured: 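Total cellular ATP measured by luciferase luminescence as a viability proxy, turned into Z scores from three plate copies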. Reading the numbers: mean Z score: higher = more ATP than other wells, better survival under zinc; ATP luminescence: higher = more ATP, more viable cells. Rule for the call: 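a reagent is called a hit when its Z score is above 1.5 or below -1.5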. Meaning of the calls: active = hit, ATP up or down; inactive = not a hit.
In all, the deposit lists about 3,100 reagents; below is an unselected part. 126 of all reagents (4.1%) were called active. 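Calls are per reagent; zinc was so toxic that few knock-downs lowered ATP further, so most hits raise ATP.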 Raw values are not corrected between plates. Not given: the amount of reagent.

no.	gene	dsRNA	mean Z score	ATP luminescence, replicate 1	ATP luminescence, replicate 2	activity call
1	Tsp5D (Tetraspanin 5D)	DRSC18380	-0.82	51749	53173	inactive
2	Tsp5D (Tetraspanin 5D)	DRSC39908	-0.309	56379	54287	inactive
3	Tsp42Ek (Tetraspanin 42Ek)	DRSC06187	-0.555	77581	60534	inactive
4	Tsp42Ek (Tetraspanin 42Ek)	DRSC39861	-0.323	48509	57631	inactive
5	CG33253	DRSC19547	-0.0326	42319	42062	inactive
6	CG33253	DRSC39701	0.505	65845	68332	inactive
7	Syx1A (Syntaxin 1A)	DRSC15359	-0.241	36478	55299	inactive
8	Syx1A (Syntaxin 1A)	DRSC21554	-0.0769	42011	51869	inactive
9	Gr33a (Gustatory receptor 33a)	DRSC02589	0.126	54922	35736	inactive
10	Gr33a (Gustatory receptor 33a)	DRSC39756	-0.273	56979	54887	inactive
11	CG4630	DRSC06874	-0.585	28073	28827	inactive
12	CG4630	DRSC26971	0.321	65588	66257	inactive
13	CG5262	DRSC11773	0.0433	29673	31810	inactive
14	CG5262	DRSC39543	0.0446	50755	52315	inactive
15	CG42826	DRSC10682	-0.143	76256	57288	inactive
16	CG14232	DRSC19588	4.91	1.00e5	1.11e5	active
17	CG14232	DRSC27714	0.41	65125	60083	inactive
18	Grd (Glycine receptor)	DRSC11178	-0.15	75415	57425	inactive
19	Grd (Glycine receptor)	DRSC28513	-0.789	46983	51509	inactive
20	Aplip1 (APPL-interacting protein 1)	DRSC21587	-0.0718	42285	52024	inactive
21	Aplip1 (APPL-interacting protein 1)	DRSC26312	-0.177	61644	52847	inactive
22	rt (rotated abdomen)	DRSC11391	-0.16	73752	55230	inactive
23	rt (rotated abdomen)	DRSC39519	2.06	76033	78586	active
24	Or24a (Odorant receptor 24a)	DRSC00768	-0.23	45988	34559	inactive
25	vir (virilizer)	DRSC04377	0.107	52384	54099	inactive
26	vir (virilizer)	DRSC26525	0.127	61249	57974	inactive
27	zyd (zydeco)	DRSC20716	-0.142	41616	43838	inactive
28	zyd (zydeco)	DRSC39493	-0.561	47171	31145	inactive
29	Irk1 (Inwardly rectifying potassium channel 1)	DRSC16106	-0.56	30456	50384	inactive
30	Gr8a (Gustatory receptor 8a)	DRSC18043	-0.0144	68932	62621	inactive
31	CG30340	DRSC05167	-0.187	41565	43348	inactive
32	CG31121	DRSC15361	0.178	54236	47411	inactive
33	CG31121	DRSC15363	-0.0898	39353	61591	inactive
34	Or94b (Odorant receptor 94b)	DRSC16773	-0.131	37605	54990	inactive
35	Or94b (Odorant receptor 94b)	DRSC27188	0.196	65914	57322	inactive
36	CG33298	DRSC02210	-0.0729	47821	40210	inactive
37	CG33298	DRSC02672	-0.196	52601	54356	inactive
38	Octalpha2R (alpha2-adrenergic-like octopamine receptor)	DRSC13319	0.578	35822	66548	inactive
39	Octalpha2R (alpha2-adrenergic-like octopamine receptor)	DRSC15314	-0.336	36096	54030	inactive
40	CG10182	DRSC14202	-0.0699	34759	53927	inactive
41	Alg12 (Alg12 alpha-1,6-mannosyltransferase)	DRSC16416	-0.217	34489	56756	inactive
42	Alg12 (Alg12 alpha-1,6-mannosyltransferase)	DRSC39763	-0.473	44548	54853	inactive
43	Rh7 (Rhodopsin 7)	DRSC10529	-0.321	27439	30199	inactive
44	Rh7 (Rhodopsin 7)	DRSC28331	2.08	1.06e5	80647	active
45	frac (faulty attraction)	DRSC10867	-0.321	29396	29119	inactive
46	frac (faulty attraction)	DRSC29239	0.632	72661	69567	inactive
